## Library screen at single concentrations

Protein sequences, listed by entry. Tags and fused reporters are not part of them. Residues count along the entry.
UniProt P9WNZ1, whole entry: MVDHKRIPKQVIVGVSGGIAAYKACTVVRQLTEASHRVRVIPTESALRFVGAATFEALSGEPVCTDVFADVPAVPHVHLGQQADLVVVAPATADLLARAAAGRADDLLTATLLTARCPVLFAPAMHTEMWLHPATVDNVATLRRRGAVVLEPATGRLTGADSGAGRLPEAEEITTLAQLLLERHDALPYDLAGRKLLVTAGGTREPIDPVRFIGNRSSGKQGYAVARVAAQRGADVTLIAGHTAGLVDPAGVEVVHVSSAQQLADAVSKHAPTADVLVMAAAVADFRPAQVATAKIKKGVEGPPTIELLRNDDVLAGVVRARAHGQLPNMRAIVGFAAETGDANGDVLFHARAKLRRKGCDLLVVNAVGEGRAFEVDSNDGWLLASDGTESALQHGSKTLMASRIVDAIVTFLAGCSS
UniProt I6X8D2, whole entry: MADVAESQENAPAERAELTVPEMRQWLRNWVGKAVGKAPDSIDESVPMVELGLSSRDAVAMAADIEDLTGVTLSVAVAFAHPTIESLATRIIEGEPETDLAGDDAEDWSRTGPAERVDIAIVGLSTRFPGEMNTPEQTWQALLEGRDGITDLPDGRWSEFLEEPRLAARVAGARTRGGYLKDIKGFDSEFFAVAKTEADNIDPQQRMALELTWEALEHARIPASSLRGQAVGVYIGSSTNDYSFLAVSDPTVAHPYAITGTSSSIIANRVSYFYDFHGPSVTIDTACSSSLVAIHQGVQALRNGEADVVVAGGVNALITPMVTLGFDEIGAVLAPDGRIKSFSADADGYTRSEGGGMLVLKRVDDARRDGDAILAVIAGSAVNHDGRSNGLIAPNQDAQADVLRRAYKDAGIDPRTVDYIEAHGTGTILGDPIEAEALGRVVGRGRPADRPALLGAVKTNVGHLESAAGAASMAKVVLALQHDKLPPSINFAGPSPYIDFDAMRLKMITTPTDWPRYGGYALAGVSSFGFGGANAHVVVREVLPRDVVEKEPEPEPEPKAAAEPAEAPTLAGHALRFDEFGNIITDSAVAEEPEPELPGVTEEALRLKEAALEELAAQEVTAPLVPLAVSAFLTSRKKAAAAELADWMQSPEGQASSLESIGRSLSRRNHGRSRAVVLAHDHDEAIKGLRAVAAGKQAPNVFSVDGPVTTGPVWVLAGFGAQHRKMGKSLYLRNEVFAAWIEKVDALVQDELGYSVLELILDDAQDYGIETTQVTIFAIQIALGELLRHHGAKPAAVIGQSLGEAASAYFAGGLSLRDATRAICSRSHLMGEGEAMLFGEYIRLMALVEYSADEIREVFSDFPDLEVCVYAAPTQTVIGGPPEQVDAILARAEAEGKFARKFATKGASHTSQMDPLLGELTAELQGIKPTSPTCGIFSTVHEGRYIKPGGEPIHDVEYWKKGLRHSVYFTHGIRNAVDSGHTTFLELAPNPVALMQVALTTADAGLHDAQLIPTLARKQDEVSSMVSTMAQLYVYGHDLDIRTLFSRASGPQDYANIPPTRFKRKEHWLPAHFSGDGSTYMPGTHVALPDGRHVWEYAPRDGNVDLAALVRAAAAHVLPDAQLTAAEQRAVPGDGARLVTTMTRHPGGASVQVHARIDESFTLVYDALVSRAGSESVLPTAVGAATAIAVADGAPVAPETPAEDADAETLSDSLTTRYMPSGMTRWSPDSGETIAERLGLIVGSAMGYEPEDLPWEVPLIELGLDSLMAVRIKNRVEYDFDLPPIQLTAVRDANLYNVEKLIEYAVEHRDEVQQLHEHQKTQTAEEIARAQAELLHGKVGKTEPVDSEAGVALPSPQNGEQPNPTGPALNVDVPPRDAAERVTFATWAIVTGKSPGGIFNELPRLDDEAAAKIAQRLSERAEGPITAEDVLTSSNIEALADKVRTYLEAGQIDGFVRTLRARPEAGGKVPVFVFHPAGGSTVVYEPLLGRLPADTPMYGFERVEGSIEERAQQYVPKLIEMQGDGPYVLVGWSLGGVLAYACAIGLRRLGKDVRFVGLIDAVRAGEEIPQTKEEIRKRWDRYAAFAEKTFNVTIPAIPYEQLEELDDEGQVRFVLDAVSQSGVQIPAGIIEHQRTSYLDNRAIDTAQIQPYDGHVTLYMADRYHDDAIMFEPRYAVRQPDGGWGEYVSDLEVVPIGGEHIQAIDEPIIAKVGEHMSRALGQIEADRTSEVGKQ
UniProt P9WPC5, whole entry: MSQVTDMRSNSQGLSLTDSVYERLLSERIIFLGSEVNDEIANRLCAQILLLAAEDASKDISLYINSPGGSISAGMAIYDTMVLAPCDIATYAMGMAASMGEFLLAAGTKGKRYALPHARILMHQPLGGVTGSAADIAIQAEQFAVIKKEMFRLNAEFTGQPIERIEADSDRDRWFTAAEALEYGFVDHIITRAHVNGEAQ
UniProt P9WPC3, whole entry partner: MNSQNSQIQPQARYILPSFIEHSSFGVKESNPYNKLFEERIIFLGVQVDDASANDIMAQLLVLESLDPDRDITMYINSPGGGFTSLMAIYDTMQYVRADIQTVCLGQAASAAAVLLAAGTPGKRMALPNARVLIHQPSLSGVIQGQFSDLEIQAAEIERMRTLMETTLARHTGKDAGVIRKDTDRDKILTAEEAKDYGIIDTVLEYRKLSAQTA
UniProt Q4DA54, 1-478: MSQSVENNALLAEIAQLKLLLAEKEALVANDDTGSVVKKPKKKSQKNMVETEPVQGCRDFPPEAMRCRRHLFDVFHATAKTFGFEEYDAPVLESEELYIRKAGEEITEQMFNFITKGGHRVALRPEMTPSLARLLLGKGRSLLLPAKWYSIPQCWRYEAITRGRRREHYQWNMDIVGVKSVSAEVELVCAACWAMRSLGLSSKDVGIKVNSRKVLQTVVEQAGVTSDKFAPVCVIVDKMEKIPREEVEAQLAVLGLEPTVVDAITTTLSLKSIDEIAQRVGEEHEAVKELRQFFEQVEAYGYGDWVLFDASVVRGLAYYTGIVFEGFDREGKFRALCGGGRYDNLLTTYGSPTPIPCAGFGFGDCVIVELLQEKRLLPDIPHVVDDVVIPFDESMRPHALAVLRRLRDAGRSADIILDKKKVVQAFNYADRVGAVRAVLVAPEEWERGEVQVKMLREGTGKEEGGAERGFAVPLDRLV

Data taken from ChEMBL document CHEMBL3988442, “University of Dundee, Small-Polar-MMV Screening Library” (2021).

Each number is a percent effect as filed. The record does not define 0% and 100%; most values in the screen are far below 50% and negative numbers occur (in some assays of this library far below -100). This is an unselected part of the compounds tested. Two or more numbers in one place are separate tests of the same structure; such repeats can differ widely.

A: 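Coenzyme A biosynthesis protein CoaBC, Mycobacterium tuberculosis (UniProt P9WNZ1). Enzyme assay of CoaBC with a phosphate dye (Biomol Green) read at 650 nm. Tested at 30 µM. Direction is inferred from only a few compounds that gave an IC50; most scored high, so higher reads as stronger inhibition. Most strong results did not repeat in a second test. Size under these conditions: about 67,000 compounds, about 40 of them at 50% or above in at least one test.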
B: 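Cell assay of Leishmania donovani living inside macrophages; the read-out is not stated. Concentration: 30 µM. Higher reads as stronger inhibition (inferred: compounds with an IC50 in retests scored well above the rest). About 69,000 compounds were tested under these conditions; 1.5% (about 1,000) showed 50% or more at least once.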
C: 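Polyketide synthase Pks13, Mycobacterium tuberculosis (UniProt I6X8D2). Enzyme assay of the thioesterase domain of polyketide synthase 13; the read-out is not stated. Concentration: 30 µM. Higher reads as stronger inhibition (inferred from which compounds were picked for retests). Size under these conditions: about 67,000 compounds, about 300 of them at 50% or above in at least one test.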
D: 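Protease assay of ClpP1P2, read by the AMC dye that it sets free. Target: ClpP1P2, Mycobacterium tuberculosis (UniProt P9WPC5 and UniProt P9WPC3). Tested at 50 µM. Direction is inferred from only a few compounds that gave an IC50; most scored high, so higher reads as stronger inhibition. Most other retested compounds had strongly negative values. Size under these conditions: about 69,000 compounds, about 10 of them at 50% or above in at least one test.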
E: 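Histidine-tRNA ligase, Trypanosoma cruzi CL Brener (UniProt Q4DA54). Enzyme assay of histidyl-tRNA synthetase; the read-out is not stated. Concentration: 30 µM. The record gives no direction; compounds that gave an IC50 in retests scored well above the rest, so higher reads as stronger inhibition. Size under these conditions: about 69,000 compounds, about 31 of them at 50% or above in at least one test.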

structure: Cc1cnc(CC2COCCN(C(=O)c3cncs3)C2)cn1 (configuration not stated)
A: -6.938
B: 24.77
C: -1.075
D: -8.442
E: 6.513

structure: O=C(O)C(F)(F)F.O=C1N(Cc2ccncc2)CCC12CCCN(c1ncc(F)cn1)C2 (configuration not stated)
B: 8.428

structure: CCOc1ccc(C2CC(=O)NCc3nc(N)sc32)cc1CO (configuration not stated)
A: 12.96
B: -106.5
C: -28.94
D: 4.566
E: 5.464

structure: CCN1CCN(C)C2(CCN(Cc3ccsc3)CC2)C1=O
A: 4
C: -15.17
D: -4.453
E: 5.288

structure: CC(C)(Oc1ccc(C(N)=O)cc1)C(=O)N(CCC#N)CC1CCCO1 (configuration not stated)
A: -0.7282
B: -1.808
C: 0.6241
D: -3.746
E: 0

structure: CC(C)n1ccc(C(=O)OCC2CC(=O)N(Cc3ccccc3)C2)n1 (configuration not stated)
A: 6.667
B: 24.61
C: -26.37
D: -20.45
E: -0.8929

structure: CCc1cc(=O)[nH]c2nnc(SCC(=O)NC)n12
A: -1.373
B: -97.49
C: -28.46
D: 6.901
E: 1.02

structure: CC1(c2ccccc2)CCC(=O)N(CCN2CCOC2=O)C1 (configuration not stated)
A: 3.371
B: 27.41
C: -19.74
D: -3.927
E: 5.102

structure: CC(=O)N1CCC(c2cc(C(F)(F)F)nc3nccn23)CC1
A: 0.9709
B: 15.95 and 17.92
C: 57.51
D: -76.72
E: 5.495

structure: Cc1cc(C(=O)N2CCCC3(CCCN3Cc3cccnc3)C2)[nH]n1 (configuration not stated)
A: 12.83
B: 4.049
C: 13.79
D: 11.09
E: -2.299

structure: Cn1cc(NC(=O)N2CCC(c3ccccc3)CC2)ccc1=O
A: 7.772
B: 43.84
C: -4.154
D: -3.086
E: 22.14

structure: CCOc1ncccc1NC(=O)NC1CCN(c2ncccn2)CC1
A: -8.043
B: 23.55
C: -9.162
D: -15.52
E: 7.123

structure: CN(C)S(=O)(=O)N1CCC2(COCc3cnc(NCC4CC4)nc32)C1 (configuration not stated)
A: 0.8631
B: -27.92
C: 19.58
D: 1.495
E: 4.386

structure: CCc1noc(C)c1C(=O)N(C)Cc1ncc(C)c(OC)c1C
A: 7.179
B: 17.33
C: -22.39
D: 11.04
E: -0.3774

structure: CN(C)C(=O)C1OC2(CCNCC2)c2ccccc21 (configuration not stated)
A: 7.018
C: 18.39
D: 15
E: 3.659

structure: CN(C)c1ccc(C(=O)N2CCN(C(=O)N3CCCCC3)CC2)nn1
A: -1.446
B: 15.91
C: 65.34
D: 0.723
E: -1.527